Amino acid sequences for entries named in this document (tags omitted). Residues count along the entry.
UniProt P00748, 20-615: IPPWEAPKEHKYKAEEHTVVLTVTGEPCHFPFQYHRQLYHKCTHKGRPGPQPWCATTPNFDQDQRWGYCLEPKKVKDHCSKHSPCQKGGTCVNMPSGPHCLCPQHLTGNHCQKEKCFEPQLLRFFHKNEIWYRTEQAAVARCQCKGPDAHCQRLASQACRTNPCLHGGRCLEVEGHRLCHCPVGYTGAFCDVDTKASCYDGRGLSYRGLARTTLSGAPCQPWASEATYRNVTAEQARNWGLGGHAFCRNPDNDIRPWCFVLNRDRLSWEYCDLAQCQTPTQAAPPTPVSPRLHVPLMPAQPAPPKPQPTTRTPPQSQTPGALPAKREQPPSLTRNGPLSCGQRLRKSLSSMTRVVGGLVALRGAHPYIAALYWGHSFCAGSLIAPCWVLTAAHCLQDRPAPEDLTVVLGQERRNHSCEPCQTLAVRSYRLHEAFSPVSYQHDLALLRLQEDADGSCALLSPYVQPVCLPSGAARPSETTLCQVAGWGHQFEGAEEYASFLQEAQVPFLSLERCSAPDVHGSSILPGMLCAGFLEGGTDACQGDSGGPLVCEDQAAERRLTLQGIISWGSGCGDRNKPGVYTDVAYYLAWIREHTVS

In patent US20110281938:

Assays:
[1] = biological target: TFPI (plasma, hemophilia A pool) (Homo sapiens) (UniProt P10646); experiment: activity assay; conditions: 2'-OMe except dC9, dC14, dC16, dC25; 5' 40 kDa PEG via amine linker; no idT; CAT thrombin generation in hemophilia A plasma, similar to ARC19499; protein in an extract; synthetic backbone; dose not given here
[2] = biological target: TFPI (tissue factor pathway inhibitor, full-length) (Homo sapiens) (UniProt P10646); experiment: ELONA; conditions: 5' 40 kDa PEG via hexylamine, 2'-OMe A/G/U, 2'-deoxy C, 3' idT; plate-immobilised TFPI, anti-PEG detection, DPBS 0.1% BSA, RT; purified recombinant protein; variant of ARC17480
[3] = biological target: TFPI (tissue factor pathway inhibitor, full-length) (Homo sapiens) (UniProt P10646); experiment: inhibition of the protein; conditions: 5' 40 kDa PEG via hexylamine, 2'-OMe A/G/U, 2'-deoxy C, 3' idT, HBS 2 mM CaCl2, 37 C, purified recombinant protein, variant of ARC17480
[4] = biological target: TFPI (recombinant, Novo Nordisk cell line) (Homo sapiens) (UniProt P10646); experiment: inhibition of the protein; conditions: 5' 40 kDa PEG via hexylamine, 2'-OMe A/G/U, 2'-deoxy C, 3' idT; apparent binding constant (called Ki in p826) from FXa protection, 3 mM CaCl2; purified recombinant protein; protein details: purified from Novo Nordisk cell line; variant of ARC17480
[5] = biological target: TFPI (tissue factor pathway inhibitor, full-length) (Homo sapiens) (UniProt P10646); experiment: competition with a labelled probe; conditions: 2'-OMe A/G/U and mC18, other C 2'-deoxy, 3' idT; fails binding-competition criterion; purified recombinant protein; variant of ARC17480
Factor XII = Factor XII (UniProt P00748); experiment: filter binding; conditions: 2'-OMe A/G/U, 2'-deoxy C, 3' idT; some binding at high protein, eliminated by 0.1 mg/mL tRNA, likely non-specific; purified native protein; label: radiolabel
TFPI-His = TFPI-His (UniProt P10646); experiment: filter binding; conditions: 2'-OMe A/G/U, 2'-deoxy C, 3' idT; reduced vs full-length TFPI; purified recombinant protein; label: radiolabel
[6] = biological target: T1, TFPI K3-C-terminal domain (UniProt P10646); experiment: filter binding; conditions: 2'-OMe A/G/U, 2'-deoxy C, 3' idT; very weak, only at higher protein concentrations; purified recombinant protein; protein details: N-terminal 6-His, E. coli expressed; label: radiolabel
T1 sequence: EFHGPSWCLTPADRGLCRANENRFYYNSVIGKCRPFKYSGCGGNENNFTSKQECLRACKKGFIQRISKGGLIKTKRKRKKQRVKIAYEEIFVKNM

TFPI C-terminal peptide = biological target: T2, TFPI C-terminal peptide (UniProt P10646); experiment: filter binding; conditions: 2'-OMe A/G/U, 2'-deoxy C, 3' idT; weak at high peptide (up to 10 uM), neutravidin capture; synthetic protein; protein details: N-terminal biotin, synthetic peptide; label: radiolabel
T2 sequence: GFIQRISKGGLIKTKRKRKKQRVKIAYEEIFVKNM

[7] = biological target: TFPI (tissue factor pathway inhibitor, full-length) (Homo sapiens) (UniProt P10646); experiment: filter binding; conditions: 2'-OMe A/G/U, 2'-deoxy C, 3' idT, purified recombinant protein, label: radiolabel

Q: With “GGAAUAUACUUGGCUCGUUAGGUGCGUAUAUA [ARC21383]” as the sequence, how does the “functional effect of the aptamer” value [1] read?
A: active

Q: What does the source list for “GGAAUAUACUUGGCUCGUUAGGUGCGUAUAUA [ARC19499 (BAX499)]”?
A: Kd [2]: 30 nM; Kd ([3]; apparent KD from FXa protection): 1.8 nM; Kd ([3]; apparent KD from TF:FVIIa protection): 1.2 nM; Kd [4]: 50 nM

Q: With “GGAAUAUACUUGGCUCGUUAGGUGCGUAU [ARC21389]” as the sequence, how does the “functional effect of the aptamer” value [1] read?
A: active

Q: Which binding signal (fold IC50 of ARC17480) [5] does the source give for “GGAAUAUACUUGGCUCGCUAGGUGCGUAUAUA [ARC33166]” here?
A: > 5

Q: For “GGAAUAUACUUGGCUCGUUAGGUGCGUAUA [ARC21387]”, which “functional effect of the aptamer” value [1] is on record?
A: active

Q: For “GGAAUAUACUUGGCUCGUUAGGUGCGUAUAU [ARC21385]”, which “functional effect of the aptamer” value [1] is on record?
A: active

Q: Does “GGAAUAUACUUGGCUCGUUAGGUGCGUAUAUA [ARC17480]” bind (Factor XII)?
A: binds more weakly

Q: Does “GGAAUAUACUUGGCUCGUUAGGUGCGUAUAUA [ARC17480]” bind (TFPI-His)?
A: binds more weakly

Q: Does “GGAAUAUACUUGGCUCGUUAGGUGCGUAUAUA [ARC17480]” bind [6]?
A: binds more weakly

Q: Does “GGAAUAUACUUGGCUCGUUAGGUGCGUAUAUA [ARC17480]” bind (TFPI C-terminal peptide)?
A: binds more weakly

Q: Does “GGAAUAUACUUGGCUCGUUAGGUGCGUAUAUA [ARC17480]” bind ([7]; 0.1 mg/mL unfractionated heparin completely abolished binding)?
A: no binding

Q: And the Kd ([7]; mean of mono- (4.0±1.5) and biphasic (1.7±0.7) fits, no tRNA)?
A: 2.9 nM

Q: What about the Kd ([7]; with 0.1 mg/mL tRNA) of the same sequence?
A: 42 nM

For some of these results: No signal at the amounts used counts as a negative. For some of these results: The comparison behind a weaker result is the experiment's own reference, which may not be listed here. For some of these results: Tags and fusion partners may be left off the protein sequences shown. For some of these results: Construct, isoform or probe ends are uncertain for at least one entry. For some of these results: Whether high values mean tight binding is not given here for every scale.
